This is an account of results in article PMC9307825.

By UniProt entry, the sequences of proteins in these tests, tags left out. Residues count along the entry.
UniProt Q15848, residues 19-244: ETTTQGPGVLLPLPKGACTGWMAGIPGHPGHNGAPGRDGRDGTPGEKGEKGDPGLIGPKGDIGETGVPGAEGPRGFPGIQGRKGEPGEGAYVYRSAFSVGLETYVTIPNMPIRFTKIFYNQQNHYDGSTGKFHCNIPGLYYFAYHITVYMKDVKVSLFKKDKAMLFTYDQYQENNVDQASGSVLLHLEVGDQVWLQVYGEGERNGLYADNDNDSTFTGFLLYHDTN

These are yes or no findings as the source states them, for the method shown. For some assays here: In cells and extracts the contact can be indirect. Some entries that bind do so weakly or less than the wild type.

For test [1], the target named is circulating adiponectin in serum of noncarriers (human (endogenous in serum)) (UniProt Q15848). Description: SEC; serum (50 µL) on Superdex 200 10/300 GL in 25 mM HEPES, 150 mM NaCl, 1 mM CaCl2, pH 7.4; fractions probed for adiponectin by Western blot. For orientation: Size exclusion chromatography separates by hydrodynamic size, large species first.
Test [2] concerns the target Clover-ADIPOQ (wild-type human adiponectin tagged with Clover) (human) (UniProt Q15848). Description: FRET or BRET; acceptor bleaching of mRuby2 in living stably expressing HEK293T cells, confocal microscopy, 37 °C; Clover donor, mRuby2 acceptor; cells without or with MG132.

For the substance “circulating adiponectin in serum of noncarriers (from UniProt Q15848 19-244)”, in test [1], the binding entry is “binds”.
In the case of “Clover-ADIPOQ (wild-type human adiponectin tagged with Clover) (from UniProt Q15848 19-244)”, in test [2], the binding result was “binds”.
